According to PMC12034769:
Residue numbers refer to the chain shown, from its start. Results are given in words; binding and its absence hold for the method and conditions named. For some assays here: Binding seen in cells or lysates may run through a third protein. Some binding calls cover weakened binding; strength is not graded here. Where a sequence is shown, tags or fusion partners need not be part of it.

Protein sequences, listed by entry. Tags and fused reporters are not part of them. Lines headed by an entry give the natural chain unless they say otherwise; changes in a name come on top. Residues count along the entry.
UniProt P19838: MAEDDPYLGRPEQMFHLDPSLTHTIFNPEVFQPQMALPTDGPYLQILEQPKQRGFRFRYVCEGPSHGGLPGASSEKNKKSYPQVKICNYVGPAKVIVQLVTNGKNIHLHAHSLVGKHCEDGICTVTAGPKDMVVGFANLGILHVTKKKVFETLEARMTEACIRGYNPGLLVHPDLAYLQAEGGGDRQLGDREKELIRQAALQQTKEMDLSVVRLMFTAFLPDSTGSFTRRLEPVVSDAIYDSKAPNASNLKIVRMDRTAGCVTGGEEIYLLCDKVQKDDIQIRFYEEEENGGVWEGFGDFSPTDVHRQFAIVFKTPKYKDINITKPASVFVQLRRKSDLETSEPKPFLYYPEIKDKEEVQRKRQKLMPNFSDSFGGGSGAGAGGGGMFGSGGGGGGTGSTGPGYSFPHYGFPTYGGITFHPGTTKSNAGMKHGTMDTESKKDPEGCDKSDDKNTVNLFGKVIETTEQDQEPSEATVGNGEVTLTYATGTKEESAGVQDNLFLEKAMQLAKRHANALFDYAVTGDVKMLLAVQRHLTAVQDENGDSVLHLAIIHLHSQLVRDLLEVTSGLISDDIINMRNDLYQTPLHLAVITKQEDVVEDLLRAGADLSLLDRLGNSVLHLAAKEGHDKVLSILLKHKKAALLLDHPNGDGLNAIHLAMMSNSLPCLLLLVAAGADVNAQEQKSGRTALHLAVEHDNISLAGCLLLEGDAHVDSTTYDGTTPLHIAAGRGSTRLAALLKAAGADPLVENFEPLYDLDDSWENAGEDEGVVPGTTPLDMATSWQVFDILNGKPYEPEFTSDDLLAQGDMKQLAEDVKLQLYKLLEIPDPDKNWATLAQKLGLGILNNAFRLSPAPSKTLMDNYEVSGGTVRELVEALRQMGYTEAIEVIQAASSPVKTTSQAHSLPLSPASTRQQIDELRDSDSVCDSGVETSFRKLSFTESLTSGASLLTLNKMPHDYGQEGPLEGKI
GST-p50 (1-366aa): residues 1-366 of P19838
UniProt O00629: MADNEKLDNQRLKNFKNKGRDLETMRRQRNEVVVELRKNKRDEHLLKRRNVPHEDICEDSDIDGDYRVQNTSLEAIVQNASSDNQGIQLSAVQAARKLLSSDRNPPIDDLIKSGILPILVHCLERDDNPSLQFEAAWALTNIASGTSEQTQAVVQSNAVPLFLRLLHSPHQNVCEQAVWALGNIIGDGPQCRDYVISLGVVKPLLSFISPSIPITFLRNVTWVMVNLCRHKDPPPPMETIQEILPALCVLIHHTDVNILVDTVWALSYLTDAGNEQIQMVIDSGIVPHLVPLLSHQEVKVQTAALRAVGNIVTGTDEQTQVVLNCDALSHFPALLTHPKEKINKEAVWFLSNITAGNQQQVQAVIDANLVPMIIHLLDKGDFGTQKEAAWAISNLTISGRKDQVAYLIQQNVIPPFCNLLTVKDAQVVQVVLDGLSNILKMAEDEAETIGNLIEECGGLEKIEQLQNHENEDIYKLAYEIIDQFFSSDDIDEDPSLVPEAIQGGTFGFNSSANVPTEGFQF
UniProt P25799, residues 1-431: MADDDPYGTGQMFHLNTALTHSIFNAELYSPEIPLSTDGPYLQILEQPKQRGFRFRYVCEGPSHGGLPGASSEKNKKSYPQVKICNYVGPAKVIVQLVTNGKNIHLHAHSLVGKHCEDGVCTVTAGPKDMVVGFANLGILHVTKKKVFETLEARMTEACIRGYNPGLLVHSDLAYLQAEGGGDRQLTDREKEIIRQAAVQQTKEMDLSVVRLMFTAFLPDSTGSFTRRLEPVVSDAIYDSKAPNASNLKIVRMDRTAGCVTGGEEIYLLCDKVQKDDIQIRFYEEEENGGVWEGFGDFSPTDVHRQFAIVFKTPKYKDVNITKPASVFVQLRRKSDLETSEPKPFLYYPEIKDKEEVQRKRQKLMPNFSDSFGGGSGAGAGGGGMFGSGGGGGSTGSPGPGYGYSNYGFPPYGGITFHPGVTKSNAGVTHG

Key:
ACAT1-Flag S60E (human) = biological target: T1, ACAT1-Flag S60E (human) (UniProt P24752); assay: co-IP; ACAT1-Flag (WT, S60A or S60E) immunoprecipitated from HCT116 cells stably expressing it; with or without IL18, shPPM1A or U0126; blot for importin α3
T1 sequence: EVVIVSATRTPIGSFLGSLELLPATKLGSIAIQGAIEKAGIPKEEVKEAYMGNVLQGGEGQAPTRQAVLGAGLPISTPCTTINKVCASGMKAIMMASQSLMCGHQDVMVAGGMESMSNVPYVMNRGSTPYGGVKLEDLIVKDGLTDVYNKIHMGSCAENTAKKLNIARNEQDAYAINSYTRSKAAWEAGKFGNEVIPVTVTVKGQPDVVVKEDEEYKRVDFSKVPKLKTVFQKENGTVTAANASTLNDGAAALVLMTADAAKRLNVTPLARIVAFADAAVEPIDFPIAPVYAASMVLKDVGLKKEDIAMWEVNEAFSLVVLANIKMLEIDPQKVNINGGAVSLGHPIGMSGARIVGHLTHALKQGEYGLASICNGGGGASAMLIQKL

ACAT1-Flag S60A (human) = biological target: T2, ACAT1-Flag S60A (human) (UniProt P24752); assay: as above
T2 sequence: T1 sequence with E20A

[1] = biological target: T3, ACAT1-Flag (human mitochondrial acetyl-CoA acetyltransferase 1, wild type) (human) (UniProt P24752); assay: as above
T3 sequence: T1 sequence with E20S

[2] = biological target: T3, ACAT1-Flag (human mitochondrial acetyl-CoA acetyltransferase 1, wild type) (human); assay: co-IP; subcellular fractionation, then IP from HCT116 cells stably expressing EV or ACAT1-Flag; blot for importin α3
[3] = biological target: T3, ACAT1-Flag (human mitochondrial acetyl-CoA acetyltransferase 1, wild type) (human); assay: co-IP; subcellular fractionation, then IP from HCT116 or CT26 cells stably expressing EV or ACAT1-Flag/Acat1-Flag; cytoplasmic fraction
[4] = biological target: T3, ACAT1-Flag (human mitochondrial acetyl-CoA acetyltransferase 1, wild type) (human); assay: co-IP; subcellular fractionation, then IP from RKO, HCT116 or CT26 cells stably expressing EV or ACAT1-Flag/Acat1-Flag; binding found in the nuclear fraction
[5] = biological target: T4, Acat1-Flag (mouse) (mouse) (UniProt Q8QZT1); assay: co-IP; subcellular fractionation, then IP from HCT116 or CT26 cells stably expressing EV or ACAT1-Flag/Acat1-Flag; cytoplasmic fraction
T4 sequence: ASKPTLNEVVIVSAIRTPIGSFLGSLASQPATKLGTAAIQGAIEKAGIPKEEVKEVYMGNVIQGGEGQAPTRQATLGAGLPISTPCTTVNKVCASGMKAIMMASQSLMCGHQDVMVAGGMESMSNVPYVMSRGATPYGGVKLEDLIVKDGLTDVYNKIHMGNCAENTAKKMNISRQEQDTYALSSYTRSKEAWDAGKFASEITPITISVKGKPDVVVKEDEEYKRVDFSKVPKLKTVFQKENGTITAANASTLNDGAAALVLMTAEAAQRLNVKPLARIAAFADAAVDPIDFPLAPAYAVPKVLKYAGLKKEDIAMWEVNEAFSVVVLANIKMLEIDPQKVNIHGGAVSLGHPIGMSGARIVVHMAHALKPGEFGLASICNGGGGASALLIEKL

[6] = biological target: T4, Acat1-Flag (mouse) (mouse); assay: co-IP; subcellular fractionation, then IP from RKO, HCT116 or CT26 cells stably expressing EV or ACAT1-Flag/Acat1-Flag; binding found in the nuclear fraction
[7] = biological target: HA-egfp-p50 (1-366aa) (human) (UniProt P19838); assay: co-IP; HA-egfp-p50 (1-366aa) immunoprecipitated from HEK293T cells; blot for ACAT1-Flag
[8] = biological target: GST-p50 (1-366aa) (human) (UniProt P19838); assay: pull-down; GST pulldown: purified ACAT1-His or ACAT1-Flag on GST or GST-p50 (1-366aa); both purified
[9] = biological target: T3, ACAT1-Flag (human mitochondrial acetyl-CoA acetyltransferase 1, wild type) (human); assay: proximity ligation; Duolink in situ PLA between endogenous PPM1A/Ppm1a and ACAT1-Flag/Acat1-Flag exogenously expressed in HCT116 and CT26 cells
[10] = biological target: T4, Acat1-Flag (mouse) (mouse); assay: as above

## importin α3, endogenous human (from UniProt O00629 1-521)
ACAT1-Flag S60E (human)
  binding: binds
ACAT1-Flag S60A (human)
  binding: binds
[1]
  binding: binds
[2]
  binding: binds

## p50 (NFKB1), endogenous human (from UniProt P19838 1-433)
[3]
  binding: no binding (condition: in the cytoplasmic fraction)
[4]
  binding: binds

## p50 (Nfkb1), endogenous mouse (from UniProt P25799 1-431)
[5]
  binding: no binding (condition: in the cytoplasmic fraction)
[6]
  binding: binds

## p105 (NFKB1 precursor), endogenous human (from UniProt P19838 1-968)
[4]
  binding: no binding

B1: ACAT1-Flag (human mitochondrial acetyl-CoA acetyltransferase 1, wild type) (enzyme, UniProt P24752 41-427)
chain: T1 sequence with E20S
[7]
  binding: binds

B2: purified ACAT1-His (enzyme, UniProt P24752 41-427)
chain: T1 sequence with E20S
[8]
  binding: binds

B3: purified ACAT1-Flag (enzyme, UniProt P24752 41-427)
chain: T1 sequence with E20S
[8]
  binding: binds

B4: protein phosphatase 1A (PPM1A), endogenous human (enzyme, UniProt P35813 1-382)
chain: MGAFLDKPKMEKHNAQGQGNGLRYGLSSMQGWRVEMEDAHTAVIGLPSGLESWSFFAVYDGHAGSQVAKYCCEHLLDHITNNQDFKGSAGAPSVENVKNGIRTGFLEIDEHMRVMSEKKHGADRSGSTAVGVLISPQHTYFINCGDSRGLLCRNRKVHFFTQDHKPSNPLEKERIQNAGGSVMIQRVNGSLAVSRALGDFDYKCVHGKGPTEQLVSPEPEVHDIERSEEDDQFIILACDGIWDVMGNEELCDFVRSRLEVTDDLEKVCNEVVDTCLYKGSRDNMSVILICFPNAPKVSPEAVKKEAELDKYLECRVEEIIKKQGEGVPDLVHVMRTLASENIPSLPPGGELASKRNVIEAVYNRLNPYKNDDTDSTSTDDMW
[9]
  binding: binds

B5: Ppm1a, endogenous mouse (enzyme, UniProt P49443 1-382)
chain: B4 chain with S52T, K86R, N293S, P299A, C314S, G324V, T376A
[10]
  binding: binds
